Positions count from the first letter of the chain named. Names and notes keep the numbering of the source. Results are given in words; binding and its absence hold for the method and conditions named. For part of these data: Binding seen in cells or lysates may run through a third protein. Some binding calls cover weakened binding; strength is not graded here. Tags and fused reporters may be left off the sequences shown. Blank lines part the entries; values can stand above or below the binder they belong to.
Tests used:
[1] = target: T1, Nse4-6HA (S. cerevisiae (budding yeast)) (UniProt P43124); assay: co-IP; anti-HA immunoprecipitation from MMS21-6HA or NSE4-6HA yeast cells transformed with centromeric plasmids expressing SMC5-9myc alleles; western blot
T1 sequence: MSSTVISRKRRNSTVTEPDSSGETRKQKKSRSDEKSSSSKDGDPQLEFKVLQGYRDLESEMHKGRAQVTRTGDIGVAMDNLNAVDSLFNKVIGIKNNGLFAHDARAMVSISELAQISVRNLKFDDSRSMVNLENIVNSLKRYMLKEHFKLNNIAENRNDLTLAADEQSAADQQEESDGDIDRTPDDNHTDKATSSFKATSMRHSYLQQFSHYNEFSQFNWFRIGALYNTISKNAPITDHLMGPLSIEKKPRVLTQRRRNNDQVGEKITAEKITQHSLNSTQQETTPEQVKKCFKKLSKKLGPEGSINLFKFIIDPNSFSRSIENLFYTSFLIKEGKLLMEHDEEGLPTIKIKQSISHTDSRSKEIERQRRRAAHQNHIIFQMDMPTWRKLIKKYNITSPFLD

[2] = target: T2, Mms21-6HA (S. cerevisiae (budding yeast)) (UniProt P38632); assay: as above
T2 sequence: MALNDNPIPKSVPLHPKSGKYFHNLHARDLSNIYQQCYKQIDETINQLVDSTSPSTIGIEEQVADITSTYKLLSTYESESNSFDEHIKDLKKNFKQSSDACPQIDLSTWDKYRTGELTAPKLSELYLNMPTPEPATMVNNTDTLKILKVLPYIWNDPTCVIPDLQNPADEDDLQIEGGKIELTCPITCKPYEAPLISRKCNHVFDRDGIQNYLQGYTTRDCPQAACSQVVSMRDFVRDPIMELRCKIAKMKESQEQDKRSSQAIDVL

[3] = target: T2, Mms21-6HA (S. cerevisiae (budding yeast)); assay: co-IP; anti-HA immunoprecipitation from wild type and GALp-SMC6 smc6-1 cells expressing Smc5-9myc and Mms21-6HA, shifted to glucose for 12 h
[4] = target: T2, Mms21-6HA (S. cerevisiae (budding yeast)); assay: co-IP; anti-HA beads; Mms21-6HA immunoprecipitated from GALp-SMC5 cells expressing SMC5 or smc5-DLEL from a centromeric vector, shifted to glucose for 6 h
[5] = target: T3, Mms21-3HA (S. cerevisiae (budding yeast)) (UniProt P38632); assay: co-IP; Mms21-3HA immunoprecipitated from exponentially growing cells transformed with SMC5-expressing centromeric plasmids
T3 sequence: T2 sequence

[6] = target: T4, 6his-HA-Nse2 (S. cerevisiae (budding yeast)) (UniProt P38632); assay: scanning force microscopy (particle volume); heterodimer co-expressed in E. coli, purified on Ni-NTA and Superdex 200; 30 ng/ul in 50 mM Tris-HCl pH 7.5, 100 mM NaCl, 2 mM MgCl2 with or without 1 mM ATP, on mica with 50 uM spermidine, imaged in air; both purified
T4 sequence: T2 sequence

- binding [4]: binds
B3: smc5-DLEL-9myc (protein, UniProt Q08204 1-1093)
chain: MTSLIDLGRYVERTHHGEDTEPRSKRVKIAKPDLSSFQPGSIIKIRLQDFVTYTLTEFNLSPSLNMIIGPNGSGKSTFVCAVCLGLAGKPEYIGRSKKVEDFIKNGQDVSKIEITLKNSPNVTDIEYIDARDETIKITRIITRSKRRSDYLINDYQVSESVVKTLVAQLNIQLDNLCQFLSQERVEEFARLKSVKLLVETIRSIDASLLDVLDELRELQGNEQSLQKDLDFKKAKIVHLRQESDKLRKSVESLRDFQNKKGEIELHSQLLPYVKVKDHKEKLNIYKEEYERAKANLRAILKDKKPFANTKKTLENQVEELTEKCSLKTDEFLKAKEKINEIFEKLNTIRDEVIKKKNQNEYYRGRTKKLQATIISTKEDFLRSQEILAQTDLELKSVFEDIDIKRKEIINKEGEIRDLISEIDAKANAINHEMRSIQRQAESKTKSLTTTDKIGILNQDQDLKEVRDAVLMVREHPEMKDKILEPPIMTVSAINAQFAAYLAQCVDYNTSKALTVVDSDSYKLFANPILDKFKVNLRELSSADTTPPVPAETVRDLGFEGYLSDFITGDKRVMKMLCQTSKIHTIPVSRRELTPAQIKKLITPRPNGKILFKRIIHGNRLVDIKQSAYGSKQVFPTDVSIKQTNFYQGSIMSNEQKIRIENEIINLKNEYNDRKSTLDALSNQKSGYRHELSELASKNDDINREAHQLNEIRKKYTMRKSTIETLREKLDQLKREARKDVSQKIKDIDDQIQQLLLKQRHLLSKMASSMKSLKNCQKELISTQILQFEAQNMDVSMNDVIGFFNEREADLKSQYEDKKKFVKEMRDTPEFQSWMREIRSYDQDTKEKLNKVAEKYEEEGNFNLSFVQDVLDKLESEIAMVNHDESAVTILDQVTAELRELEHTVPQQSKDLETIKAKLKEDHAVLEPKLDDIVSKISARFARLFNNVGSAGAVRLEKPKDYAEWKIEIMVKFRDNAPLKKLDSHTQSGGERAVSTVLYMIALQEFTSAPFRVVDEINQGMDSRNERIVHKAMVENACAENTSQYFLITPKLLTGLHYHEKMRIHCVMAGSWIPNPSEDPKMIHFGETSNYSFD

- binding [6]: binds
B5: 6his-T7-Smc5 (protein, UniProt Q08204 1-1093)
chain: B3 chain with D391H, E393P, L394E

More lines, now with the values behind:

B1: Smc5-9myc (wild type) (protein, UniProt Q08204 1-1093)
chain: B3 chain with D391H, E393P, L394E
- binding [1]: binds
- binding [2]: binds
- binding [3]: binds
- binding [4]: binds
- binding [5]: binds

B2: 6his-T7-Smc5(K75I) (protein, UniProt Q08204 1-1093)
chain: B3 chain with K75I, D391H, E393P, L394E
- binding [6]: binds

B4: smc5(D1014A)-9myc (protein, UniProt Q08204 1-1093)
chain: B3 chain with D391H, E393P, L394E, D1014A
- binding [5]: binds
